PubChem BioAssay AID1224828, NIAID | 2016

- Assay: 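Find genes required for NF-kappaB p65 moving into the nucleus after LPS in mouse macrophages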 (primary screen)
- System: mouse RAW264.7 G9 macrophage reporter cells (GFP-p65, Tnf promoter-mCherry)
- Reagents: siRNA pool against mouse genes, 100 nM
- Duration: 2 days siRNA transfection, then 40 min LPS before fixation
- Treatment: LPS (Salmonella minnesota R595) at 10 ng/ml
- Read-out: 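Microscopy ratio of nuclear to perinuclear-ring GFP-p65 signal, scaled to the plate median; gene score is the average of two replicate robust z-scores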
- Direction: p65 translocation robust z-score: higher = more nuclear NF-kappaB p65 after LPS than the plate median; nuclear/cytoplasmic p65 ratio: higher = more nuclear NF-kappaB p65
- Rule for the call: 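Called active when z exceeds 3.3 or falls under -1.56 (median of Tlr4 controls), giving activity score of at least 50; no calls for control wells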
- Calls: active = hit (p65 shift raised or lowered); inactive = no clear change
This is an unselected part of about 17,000 reagents tested. 762 of all reagents (4.5%) were called active. 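Active calls include both raised and lowered p65 entry, mostly lowered; wells with fewer than 50 cells lack a z-score.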 The raw values are shown without normalisation. A number with no mark means an inactive call. The numbers tell different reagents against one gene apart. Some reagents were tested in more than one well and are listed for each.

| p65 translocation robust z-score | nuclear/cytoplasmic p65 ratio, rep 1 | nuclear/cytoplasmic p65 ratio, rep 2 | low cell count flag | Gene | pool no. |
| --- | --- | --- | --- | --- | --- |
| -0.46 | 1.51 | 1.65 | enough cells to score | Sumf1 (sulfatase modifying factor 1) | 1 |
| -1.51 | 1.19 | 1.16 | enough cells to score | Mbd1 (methyl-CpG binding domain protein 1) | 1 |
| 0.95 | 1.57 | 1.23 | enough cells to score | Rwdd2b (RWD domain containing 2B) | 1 |
| 0.92 | 1.72 | 2 | enough cells to score | Zfp119b (zinc finger protein 119b) | 1 |
| 0.78 | 1.51 | 1.48 | enough cells to score | Mmp3 (matrix metallopeptidase 3) | 1 |
| -0.68 | 1.47 | 1.22 | enough cells to score | Crk (Crk proto-oncogene, adaptor protein) | 1 |
| -0.86 | 1.2 | 1.23 | enough cells to score | Slc25a3 | 1 |
| 1.39 | 1.53 | 1.41 | enough cells to score | Vmn1r66 (vomeronasal 1 receptor 66) | 1 |
| – | 1.54 | 1.36 | fewer than 50 cells per well; well left out of scoring | 1810055G02Rik (RIKEN cDNA 1810055G02 gene) | 1 |
| – | 1.47 | 1.32 | fewer than 50 cells per well; well left out of scoring | Map4k5 (mitogen-activated protein kinase kinase kinase kinase 5) | 1 |
| -0.38 | 2.11 | 1.33 | enough cells to score | Map4k5 (mitogen-activated protein kinase kinase kinase kinase 5) | 1 |
| -0.79 | 1.17 | 1.13 | enough cells to score | Rlig1 (RNA 5'-phosphate and 3'-OH ligase 1) | 1 |
| -0.27 | 1.45 | 1.27 | enough cells to score | Nat1 (N-acetyl transferase 1) | 1 |
| 0.16 | 1.39 | 1.26 | enough cells to score | Vmn1r-ps103 (vomeronasal 1 receptor, pseudogene 103) | 1 |
| – | 1.28 | 1.02 | fewer than 50 cells per well; well left out of scoring | Zfp788 (zinc finger protein 788) | 1 |
| 1.95 | 2.04 | 1.94 | enough cells to score | Mrpl9 (mitochondrial ribosomal protein L9) | 1 |
| -1.37 | 1.27 | 1.19 | enough cells to score | Catsperz (cation channel sperm associated auxiliary subunit zeta) | 1 |
| -0.03 | 1.54 | 1.32 | enough cells to score | Cox15 (cytochrome c oxidase assembly protein 15) | 1 |
| -1.39 | 1.17 | 1.07 | enough cells to score | Snx2 (sorting nexin 2) | 1 |
| 0.17 | 1.63 | 1.65 | enough cells to score | Atp8b2 (ATPase, class I, type 8B, member 2) | 1 |
| -0.5 | 1.51 | 1.39 | enough cells to score | Tafazzin (tafazzin, phospholipid-lysophospholipid transacylase) | 1 |
| 1 | 1.58 | 1.32 | enough cells to score | Stoml1 (stomatin-like 1) | 1 |
| 1.58 | 2.02 | 1.65 | enough cells to score | H1f3 (H1.3 linker histone, cluster member) | 1 |
| – | 1.62 | 1.29 | fewer than 50 cells per well; well left out of scoring | Or5p68 (olfactory receptor family 5 subfamily P member 68) | 1 |
| 0.24 | 1.57 | 1.8 | enough cells to score | Ano10 (anoctamin 10) | 1 |
| -0.83 | 1.59 | 1.11 | enough cells to score | Trim52 (tripartite motif-containing 52) | 1 |
| -0.89 | 1.31 | 1.25 | enough cells to score | Mbtps1 (membrane-bound transcription factor peptidase, site 1) | 1 |
| 0.47 | 1.56 | 1.54 | enough cells to score | Gjd4 (gap junction protein, delta 4) | 1 |
| – | 1.61 | 2.08 | fewer than 50 cells per well; well left out of scoring | Garin2 (golgi associated RAB2 interactor 2) | 1 |
| 0.05 | 1.55 | 1.56 | enough cells to score | Vmn1r87 (vomeronasal 1 receptor 87) | 1 |
| -0.52 | 1.44 | 1.29 | enough cells to score | H2aj (H2J.A histone) | 1 |
| -0.42 | 1.31 | 1.46 | enough cells to score | Tex56 (testis expressed 56) | 1 |
| -1.15 | 1.27 | 1.09 | enough cells to score | Rfx6 (regulatory factor X, 6) | 1 |
| 0.42 | 1.51 | 1.43 | enough cells to score | F7 (coagulation factor VII) | 1 |
| -0.1 | 1.59 | 1.67 | enough cells to score | Acbd5 (acyl-Coenzyme A binding domain containing 5) | 1 |
| 1.88 | 1.77 | 1.85 | enough cells to score | Enpp2 (ectonucleotide pyrophosphatase/phosphodiesterase 2) | 1 |
| -1.45 | 1.45 | 1.31 | enough cells to score | Gsdma (gasdermin A) | 1 |
| -0.52 | 1.41 | 1.35 | enough cells to score | Pros1 (protein S (alpha)) | 1 |
| -1.14 | 1.44 | 1.44 | enough cells to score | Rffl (ring finger and FYVE like domain containing protein) | 1 |
| -0.12 | 1.45 | 1.37 | enough cells to score | Dock3 (dedicator of cyto-kinesis 3) | 1 |
| -0.55 | 1.39 | 1.19 | enough cells to score | Dppa4 (developmental pluripotency associated 4) | 1 |
| -0.25 | 1.45 | 1.34 | enough cells to score | Ivd (isovaleryl coenzyme A dehydrogenase) | 1 |
| 1.14 | 1.58 | 1.53 | enough cells to score | Fmr1 (fragile X messenger ribonucleoprotein 1) | 1 |
| -0.62 | 1.5 | 1.55 | enough cells to score | Aqp2 (aquaporin 2) | 1 |
| 0.68 | 1.48 | 1.32 | enough cells to score | Rbm7 (RNA binding motif protein 7) | 1 |
| 0.2 | 1.51 | 1.39 | enough cells to score | Cav2 (caveolin 2) | 1 |
| 0.12 | 1.68 | 1.6 | enough cells to score | App (amyloid beta precursor protein) | 1 |
| – | 1.82 | 1.07 | fewer than 50 cells per well; well left out of scoring | Pphln1 (periphilin 1) | 1 |
| -0.12 | 1.58 | 1.76 | enough cells to score | Cnot10 (CCR4-NOT transcription complex, subunit 10) | 1 |
| -0.13 | 1.31 | 1.3 | enough cells to score | Zdhhc1 (zinc finger, DHHC domain containing 1) | 1 |
| -0.08 | 1.56 | 1.79 | enough cells to score | Cfhr1 (complement factor H-related 1) | 1 |
| -0.97 | 1.46 | 1.53 | enough cells to score | Anapc13 (anaphase promoting complex subunit 13) | 1 |
| 0.6 | 1.66 | 1.55 | enough cells to score | Slc22a12 | 1 |
| -0.43 | 1.52 | 1.35 | enough cells to score | Sf3b6 (splicing factor 3B, subunit 6) | 1 |
| -0.49 | 1.51 | 1.38 | enough cells to score | Or5an1 (olfactory receptor family 5 subfamily AN member 1) | 1 |
| 0.8 | 1.69 | 1.56 | enough cells to score | Or5an1 (olfactory receptor family 5 subfamily AN member 1) | 2 |
| -1.37 | 1.37 | 1.28 | enough cells to score | Or2m13 (olfactory receptor family 2 subfamily M member 13) | 1 |
| -1.05 | 1.46 | 1.45 | enough cells to score | Abcb11 (ATP-binding cassette, sub-family B member 11) | 1 |
| – | 1.87 | 1.86 | fewer than 50 cells per well; well left out of scoring | Olfml1 (olfactomedin-like 1) | 1 |
| 1.67 | 1.98 | 1.77 | enough cells to score | Nudt15 (nudix hydrolase 15) | 1 |
| -0.07 | 1.43 | 1.66 | enough cells to score | Serpina6 (serine (or cysteine) peptidase inhibitor, clade A, member 6) | 1 |
| 0.73 | 1.55 | 1.45 | enough cells to score | Gpr142 (G protein-coupled receptor 142) | 1 |
| -0.47 | 1.37 | 1.18 | enough cells to score | Sirt3 (sirtuin 3) | 1 |
| -0.08 | 1.39 | 1.27 | enough cells to score | Pigh (phosphatidylinositol glycan anchor biosynthesis, class H) | 1 |
| 1.75 | 1.74 | 1.52 | enough cells to score | Gabra6 (gamma-aminobutyric acid type A receptor subunit alpha 6) | 1 |
| -0.18 | 1.5 | 1.47 | enough cells to score | Erp44 (endoplasmic reticulum protein 44) | 1 |
| 1.06 | 1.8 | 1.49 | enough cells to score | Hsd3b4 | 1 |
| 0.09 | 1.44 | 1.41 | enough cells to score | D430041D05Rik (RIKEN cDNA D430041D05 gene) | 1 |
| 0.05 | 1.58 | 1.47 | enough cells to score | Slc25a19 | 1 |
| 0.16 | 1.7 | 1.41 | enough cells to score | Epha8 (Eph receptor A8) | 1 |
| 0.26 | 1.43 | 1.44 | enough cells to score | Igf1 (insulin-like growth factor 1) | 1 |
| 1.12 | 1.56 | 1.64 | enough cells to score | Sarm1 (sterile alpha and HEAT/Armadillo motif containing 1) | 1 |
| 0.06 | 1.52 | 1.59 | enough cells to score | Gng11 (guanine nucleotide binding protein (G protein), gamma 11) | 1 |
| -1.26 | 1.41 | 1.35 | enough cells to score | Gm5105 (predicted gene 5105) | 1 |
| 1.46 | 1.69 | 1.56 | enough cells to score | Dhcr7 (7-dehydrocholesterol reductase) | 1 |

Copied from the list.
For “nuclear/cytoplasmic p65 ratio, rep 2”, Mbtps1 (membrane-bound transcription factor peptidase, site 1) shows 1.25
For “nuclear/cytoplasmic p65 ratio, rep 2”, Mbd1 (methyl-CpG binding domain protein 1) is entered as 1.16
Under “nuclear/cytoplasmic p65 ratio, rep 1”, Catsperz (cation channel sperm associated auxiliary subunit zeta) reads 1.27
Entry of Or2m13 (olfactory receptor family 2 subfamily M member 13) under “nuclear/cytoplasmic p65 ratio, rep 1”: 1.37
For “nuclear/cytoplasmic p65 ratio, rep 2”, Trim52 (tripartite motif-containing 52) shows 1.11
Entry for Mrpl9 (mitochondrial ribosomal protein L9) in “p65 translocation robust z-score”: 1.95
